The results in this text go back to paper PMC10553838, “Functional and structural insights into the multi-step activation and catalytic mechanism of bacterial ExoY nucleotidyl cyclase toxins bound to actin-profilin” (PLOS Pathogens, 2023).

These are yes or no findings as the source states them, for the method shown. A result given as binding can be weak or reduced; the word gives no strength.

The target of this experiment is human profilin (human). In words: crystal structure; VnE^DM-PRM-Prof with actin-ADP-LatB and VnE-PRM-Prof (SO4 2- bound) with actin-ADP; 1.7 Å; both purified.

Turning to PPPPP [short profilin-binding proline-rich motif (PRM) of the VnE-PRM-Prof chimera], the binding result is on record as “binds”.
